Laboratory results: PubChem BioAssay AID1259308 (NCATS, 2017)
Aim: 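Candidate targets for better recombinant protein yield in mammalian cells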 (primary screen). Cells: human HEK293 embryonic kidney cells stably expressing firefly luciferase (HEK-CMV-Luc2-Hygro). Reagent: single siRNA against human genes, 0.8 pmol siRNA per well. Time to read-out: 72 h. Detection: 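Reporter luminescence and viable-cell signal on separate replicate plates, given as percent of non-targeting control and median/MAD z-scores, plus per-cell luciferase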. Scale: total luciferase, z-score: higher = more reporter protein produced. Call rule: 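Active when the median/MAD z-score for overall luciferase is greater than 3; a gene was taken forward for validation with new siRNAs if at least two of its three siRNAs passed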. Meaning of the calls: active = raised luciferase; inactive = no rise.
This is an unselected part of about 59,000 reagents. About 1,510 of all reagents (2.6%) were called active. 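Calls use total luciferase alone and ignore viability, so some active siRNAs may act by altering cell number.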 Unmarked entries are inactive. Reagents against one gene are numbered here. Further read-outs or replicates are left out here.

{"Target gene": "MAP1S", "reagent no.": 1, "total luciferase, z-score": -0.87}
{"Target gene": "MAP1S", "reagent no.": 2, "total luciferase, z-score": 2.85}
{"Target gene": "MAP1S", "reagent no.": 3, "total luciferase, z-score": -1.54}
{"Target gene": "XCL2", "reagent no.": 1, "total luciferase, z-score": -0.438}
{"Target gene": "XCL2", "reagent no.": 2, "total luciferase, z-score": 0.377}
{"Target gene": "XCL2", "reagent no.": 3, "total luciferase, z-score": -1.98}
{"Target gene": "TTLL12", "reagent no.": 1, "total luciferase, z-score": -0.522}
{"Target gene": "TTLL12", "reagent no.": 2, "total luciferase, z-score": 0.0372}
{"Target gene": "TTLL12", "reagent no.": 3, "total luciferase, z-score": 0.168}
{"Target gene": "ANOS1", "reagent no.": 1, "total luciferase, z-score": 0.239}
{"Target gene": "ANOS1", "reagent no.": 2, "total luciferase, z-score": 0.284}
{"Target gene": "ANOS1", "reagent no.": 3, "total luciferase, z-score": -0.813}
{"Target gene": "YDJC", "reagent no.": 1, "total luciferase, z-score": -0.0594}
{"Target gene": "YDJC", "reagent no.": 2, "total luciferase, z-score": -0.982}
{"Target gene": "YDJC", "reagent no.": 3, "total luciferase, z-score": -2.12}
{"Target gene": "BIK", "reagent no.": 1, "total luciferase, z-score": -0.856}
{"Target gene": "BIK", "reagent no.": 2, "total luciferase, z-score": 1.85}
{"Target gene": "BIK", "reagent no.": 3, "total luciferase, z-score": -0.218}
{"Target gene": "ANKRD60", "reagent no.": 1, "total luciferase, z-score": -1.72}
{"Target gene": "ANKRD60", "reagent no.": 2, "total luciferase, z-score": 0.237}
{"Target gene": "ANKRD60", "reagent no.": 3, "total luciferase, z-score": 0.199}
{"Target gene": "METTL25B", "reagent no.": 1, "total luciferase, z-score": 0.494}
{"Target gene": "METTL25B", "reagent no.": 2, "total luciferase, z-score": 1.12}
{"Target gene": "METTL25B", "reagent no.": 3, "total luciferase, z-score": "4.9 (active)"}
{"Target gene": "LINC00639", "reagent no.": 1, "total luciferase, z-score": -0.594}
{"Target gene": "LINC00639", "reagent no.": 2, "total luciferase, z-score": -1.95}
{"Target gene": "LINC00639", "reagent no.": 3, "total luciferase, z-score": 0.281}
{"Target gene": "TREM2", "reagent no.": 1, "total luciferase, z-score": -0.1}
{"Target gene": "TREM2", "reagent no.": 2, "total luciferase, z-score": -1.53}
{"Target gene": "TREM2", "reagent no.": 3, "total luciferase, z-score": 1.61}
{"Target gene": "NEURL4", "reagent no.": 1, "total luciferase, z-score": -0.391}
{"Target gene": "NEURL4", "reagent no.": 2, "total luciferase, z-score": -0.365}
{"Target gene": "NEURL4", "reagent no.": 3, "total luciferase, z-score": -1.32}

3 entries from above, ordered by “total luciferase, z-score”, ascending.
{"Target gene": "MAP1S", "reagent no.": 3, "total luciferase, z-score": -1.54}
{"Target gene": "XCL2", "reagent no.": 1, "total luciferase, z-score": -0.438}
{"Target gene": "XCL2", "reagent no.": 2, "total luciferase, z-score": 0.377}
